PubChem BioAssay AID330 (DTP/NCI, 2004)
The list does not hold the whole screen: it gathers tests that were run many times, whatever their T/C, doses with no T/C, and many T/C values between a quarter and a half above the control. Other doses and runs of a compound stand elsewhere. T/C gives the treated animals as a percentage of the vehicle group. Some doses have a count of surviving animals in place of a T/C: the source holds a T/C of zero for them, seemingly a mark for toxic or unscored doses. Some survivor counts are full or nearly so, which does not show that the dose was tolerated: survival well below the control is almost never listed, so the zero probably covers shortened survival too. Counts of survivors are from the toxicity check (mostly the fifth day) where no day follows; animals may have died later. Schedules are NCI's codes, read here as Q, the interval in days (D) or hours (H), X, the number of doses. Some entries hold several experiments; their values stand side by side, smallest first. Where survival is the endpoint, the PubChem record calls one and a half times the control and up active, and a quarter to a half above the control has no call in these data; cut-offs in other NCI protocols can differ. Some T/C values are followed by the survivors on the day toxicity was checked, most often the fifth; without a count, all were alive then.

System: P388 leukemia ip, CD2F1 mice, survival T/C
Assay: NCI In Vivo Anticancer Drug Screen. Data for tumor model P388 Leukemia (intraperitoneal) in CD2F1 (CDF1) mice
Details: T/C endpoint: median survival time, higher T/C = longer survival
[1] = dose: 200.0 mg/kg/injection, schedule: Q01DX009 (ip), vehicle: suspension in saline
[2] = dose: 200.0 mg/kg/injection, schedule: Q01DX005 (ip), vehicle: saline with Tween-80
[3] = dose: 100.0 mg/kg/injection, schedule: Q01DX009 (ip), vehicle: saline with Tween-80
[4] = dose: 200.0 mg/kg/injection, schedule: Q01DX009 (ip), vehicle: saline with Tween-80

COc1cc2c(c(OC)c1OC)-c1ccc(OC)c(=O)cc1[C@@H](NC(=O)C(F)(F)F)CC2 was tested, and the T/C (dose: 0.39 mg/kg/injection, schedule: Q01DX009 (ip), vehicle: Klucel (hydroxypropylcellulose) (HPC)) was 125 % of control, the survivor count (dose: 0.78 mg/kg/injection, schedule: Q01DX009 (ip), vehicle: Klucel (hydroxypropylcellulose) (HPC)) was 1 of 6 and the T/C (dose: 97.5 micrograms/kg/injection, schedule: Q01DX009 (ip), vehicle: Klucel (hydroxypropylcellulose) (HPC)) was 129 % of control. The T/C (dose: 195.0 micrograms/kg/injection, schedule: Q01DX009 (ip), vehicle: Klucel (hydroxypropylcellulose) (HPC)) was 130 and 141 % of control, the T/C (dose: 390.0 micrograms/kg/injection, schedule: Q01DX009 (ip), vehicle: Klucel (hydroxypropylcellulose) (HPC)) was 133 and 142 % of control and the survivor count (dose: 780.0 micrograms/kg/injection, schedule: Q01DX009 (ip), vehicle: Klucel (hydroxypropylcellulose) (HPC)) was 1 of 6 and 3 of 6. The survivor count (dose: 1560.0 micrograms/kg/injection, schedule: Q01DX009 (ip), vehicle: Klucel (hydroxypropylcellulose) (HPC)) was 0 of 6 and 1 of 6.

In the case of Nc1ccccc1Nc1ccncc1, the survivor count [1] is reported as 2 of 6.

With Cc1ccc2nc(NC(=S)S)sc2c1 the survivor count (dose: 50.0 mg/kg/injection, schedule: Q01DX009 (ip), vehicle: Klucel (hydroxypropylcellulose) (HPC)) was 6 of 6 and the survivor count (dose: 200.0 mg/kg/injection, schedule: Q01DX009 (ip), vehicle: Klucel (hydroxypropylcellulose) (HPC)) was 6 of 6.

For O=C(Nc1ccccc1-c1ccccc1)C(=O)Nc1ccccc1-c1ccccc1, the survivor count [2] was 5 of 5.

CCCCN(CCCC)CNC(=O)c1ccccc1 was tested, and the survivor count [2] was 3 of 5.

With O=c1[nH]c(O)c(N=Nc2ccc([N+](=O)[O-])cc2[N+](=O)[O-])c(=O)[nH]1 the T/C [3] was 125 % of control.

In the case of CN=C(N)N/N=C(\C)c1ccc2c(c1)Cc1cc(/C(C)=N/NC(N)=NC)ccc1-2, the T/C (dose: 0.78 mg/kg/injection, schedule: Q04DX002 (ip), vehicle: saline with Tween-80) is reported as 133 % of control, the T/C (dose: 1.56 mg/kg/injection, schedule: Q04DX002 (ip), vehicle: saline with Tween-80) is reported as 132 and 145 % of control and the T/C (dose: 3.12 mg/kg/injection, schedule: Q04DX002 (ip), vehicle: saline with Tween-80) is reported as 135 [5 of 6 alive], 142, 142 % of control [5 of 6 alive]. For the same compound, the T/C (dose: 6.25 mg/kg/injection, schedule: Q04DX002 (ip), vehicle: saline with Tween-80) was 148 and 149 % of control [5 of 6 alive], the survivor count (dose: 12.5 mg/kg/injection, schedule: Q04DX002 (ip), vehicle: saline with Tween-80) was 5 of 6 and 6 of 6 and the survivor count (dose: 25.0 mg/kg/injection, schedule: Q04DX002 (ip), vehicle: saline with Tween-80) was 2 of 6. For the same compound, the survivor count (dose: 50.0 mg/kg/injection, schedule: Q04DX002 (ip), vehicle: saline with Tween-80) was 0 of 6 and the survivor count (dose: 100.0 mg/kg/injection, schedule: Q04DX002 (ip), vehicle: saline with Tween-80) was 0 of 6.

In the case of CN(C)c1ccc(/C=C/c2ccc3ccccc3[n+]2C)cc1, the survivor count (dose: 6.25 mg/kg/injection, schedule: Q01DX009 (ip), vehicle: saline with Tween-80) is reported as 0 of 6, the survivor count (dose: 12.5 mg/kg/injection, schedule: Q01DX009 (ip), vehicle: saline with Tween-80) is reported as 0 of 6 and the survivor count (dose: 25.0 mg/kg/injection, schedule: Q01DX009 (ip), vehicle: saline with Tween-80) is reported as 0 of 6. For the same compound, the survivor count (dose: 50.0 mg/kg/injection, schedule: Q04DX003 (ip), vehicle: saline with Tween-80) was 0 of 6, the survivor count (dose: 100.0 mg/kg/injection, schedule: Q04DX003 (ip), vehicle: saline with Tween-80) was 0 of 6 and the survivor count (dose: 200.0 mg/kg/injection, schedule: Q04DX003 (ip), vehicle: saline with Tween-80) was 0 of 6.

CC(=O)c1ccccc1N=Nc1ccc(N(CCCl)CCCl)cc1C was tested, and the T/C [3] was 126 % of control and the T/C [4] was 131 % of control [5 of 6 alive].

COc1ccc2cc1Oc1ccc(cc1)C[C@H]1c3cc(c(OC)cc3CCN1C)Oc1c(O)c(OC)cc3c1[C@H](C2)N(C)CC3 was tested, and the survivor count [1] was 6 of 6 and the survivor count (dose: 400.0 mg/kg/injection, schedule: Q01DX009 (ip), vehicle: suspension in saline) was 2 of 6.

O=C1OCC/C1=C1/NC2CCCCC2NC1=O (stereo not given) was tested, and the survivor count [4] was 1 of 6.

In the case of O=C(CC1NCCCC1O)Cn1cnc2ccccc2c1=O (stereo not given), the survivor count (dose: 8.0 mg/kg/injection, schedule: Q01DX009 (ip), vehicle: distilled water + alcohol) is reported as 1 of 6.

For CCC1CN2CCO[Si](CC[Si](C)(C)C)(OCC2)O1 (stereo not given), the survivor count (dose: 50.0 mg/kg/injection, schedule: Q01DX005 (ip), vehicle: Klucel (hydroxypropylcellulose) (HPC)) was 5 of 6 and the survivor count (dose: 100.0 mg/kg/injection, schedule: Q01DX005 (ip), vehicle: Klucel (hydroxypropylcellulose) (HPC)) was 5 of 6.
